# Results of single-concentration screens

Each number is a percent effect as filed. How 0% and 100% were set is not recorded. Most values in the screen are low, and negative values occur. The compounds are a random part of those screened. Two or more numbers in one place are separate tests of the same structure; such repeats can differ widely.

A: 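Whole-cell growth test on Mycobacterium tuberculosis, read after 3 days in glucose-containing 7H9 medium; the read-out is not stated. Tested at 50 µM. Direction is inferred from retests: higher values go with more growth inhibition. Size under these conditions: about 69,000 compounds, about 760 of them at 50% or above in at least one test.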
B: 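Growth of Mycobacterium tuberculosis over 4 days (cholesterol / DPPC medium with tyloxapol); the read-out is not stated. Compounds at 50 µM. The record gives no direction; compounds that gave an IC50 in retests scored well above the rest, so higher reads as more growth inhibition. About 69,000 compounds were tested under these conditions; 0.54% (about 370) showed 50% or more at least once.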

structure	A	B
CCc1cccc(NC(=O)CCC(=O)N(C)Cc2nc(C)c[nH]2)c1	-31.47% and 3.179%	-6.096%
[H][C@]12CN(CCN3CCCC3)C(=O)[C@@]1([H])CN(c1cc(OC)ncn1)C2	-13.29% and -5.128%	11.34%
CN1C[C@@H](n2cnc(-c3ccccc3)c2-c2ncc[nH]2)C[C@H]1C(=O)O	-13.96%	-9.043%
CCN1CC2(CC1=O)CN(C(=O)c1cccs1)CCN(C(=O)N(C)C)C2 (centres unmarked)	2.5%	11.51%
Cc1cc(C(=O)N2CCNC(c3ccccc3)C2)c2ccc(F)cc2n1 (centres unmarked)	32.76%	7.477%
O=c1c2ccccc2nc2n1C(CSc1cccc(C(F)(F)F)c1)CN2 (centres unmarked)	-2.717% and -11.99%	3.884%
CCNc1ncc(C(=O)NCc2ccc3nsnc3c2)cn1	-16.11%	-36.28%
O=C(c1ccccc1-n1cnnn1)N1CCC2(CC1)OCCO2	-0.4384%	-26.87%
Cc1nc(NC(=O)CCc2c(C)nc3cc(O)nn3c2C)sc1C	20.09%	-18.17%
[H][C@@]12CCC(=O)N(CCc3ccccc3)[C@]1([H])CCN(c1ccnc(C)n1)C2	-1.811%	-11.17%
Cc1ccnc(NC(=O)CCc2cnn(C)c2C)c1	-11.13%	-2.166%
O=C(NCC(O)c1cccc(F)c1)C1CCN(C2CCCCC2)CC1 (centres unmarked)	-2.047% and 1.516%	-12.38%
CCn1cc(NS(=O)(=O)c2ccc(Br)s2)c(C(N)=O)n1	-2.167% and -5.487%	-10.21%
O=C(O)C(F)(F)F.O=C(O)C(F)(F)F.[H][C@@]12C[C@H](C(=O)NC(C)C)CN(Cc3ccc4ccccc4n3)[C@]1([H])CCO2	-12.55%	11.13% and -12.16%
CCCOC(=O)N1CCCC2(CCN(Cc3cccc(C#N)c3)C2)C1 (centres unmarked)	-12.91%	-4.751%
CCCc1cc(=O)n(CC(N)=O)c(-n2nc(C)cc2C)n1	24.17%	4.73%
[H][C@]12CC[C@]([H])(CN(Cc3cscn3)C1)N(C(=O)CNC(N)=O)C2	-43.87%	-43.93%
O=C(c1ccoc1)N1CCC(NCc2ccccc2-n2ccnc2)CC1	-65.25%	-68.57%
CC(C)(C)C(O)CN1CCN(Cc2nccn2CC(F)(F)F)CC1 (centres unmarked)	-1.461%	-28.12%
COCc1nc(C(=O)NS(=O)(=O)c2cc(C)ccc2C)cs1	0.3422%	1.37%
Cc1ccc(-c2cc(C3CCNCC3)nc(C)n2)cc1.Cl	46.11%	33.78%
CCOc1nnc(CN2CCCC(c3nc4ccccc4[nH]3)C2)s1 (centres unmarked)	21.36% and 10.87%	16.2%
CN(Cc1cccc(C#N)c1)C(=O)C1CC(c2cccc(F)c2)=NO1 (centres unmarked)	28.64%	8.382%
Cc1ccc(CNC(=O)N(C)Cc2cnn(C)c2)s1	-15.55%	-22.91%
Cc1cc2[nH]c(CN3CCOC(c4ccc(Cl)cc4)C3)cc(=O)n2n1 (centres unmarked)	7.266%	0.2171%
CC(C)N(C)C(=O)c1ccc(CNc2ncc(C#N)cc2Cl)cc1	-0.2027%	-11.16%
COc1ccc(C(=O)N2CCOCC(CO)C2)cc1N1CCOCC1 (centres unmarked)	20.14%	7.927%
CCC1c2ccsc2CCN1C(=O)NCc1cccnc1OC (centres unmarked)	8.517%	6.873%
CC(C)N(CC1CCCN(CC(N)=O)C1)C(=O)OC(C)(C)C (centres unmarked)	37.63%	-54.6% and -4.21%
CCCS(=O)(=O)N1CC(=O)N(Cc2cccc(OC)c2OC)CC(O)C1 (centres unmarked)	6.957%	-10.61%
CSc1ccc(OC(C)C(=O)Nc2c(C)n[nH]c2C)cc1 (centres unmarked)	-13.17%	2.198%
CC(NS(C)(=O)=O)C(=O)N(C)Cc1csc(-c2ccccc2)n1 (centres unmarked)	1.12% and 1.499%	10.15%
CCc1nnc(C2Cc3ccccc3CN2Cc2ncc(Cl)n2C)o1 (centres unmarked)	12.23%	0.968%
Fc1cccc(C2CCCCN2Cc2nc(-c3cnccn3)no2)c1 (centres unmarked)	-1.251%	3.832%
Cc1ccnc(NCCNC(=O)c2ccccc2NCC(=O)O)c1	13.74%	18.09%
CC/C=C(\C)CN1CCC(CNC(=O)c2c[nH]c(=O)c(Cl)c2)C1 (centres unmarked)	-48.62%	1.459%
OCC1(NCc2cnc(-c3cccs3)s2)CCOCC1	13.92%	8.618%
CC1(c2ncc(CN3CCSCC3)cn2)CCCCO1 (centres unmarked)	-5.237%	-25.29% and -30.27%
O=C(O)C(F)(F)F.O=C(O)C(F)(F)F.c1cncc(CN2CCc3ncnc(C4CCOC4)c3CC2)c1 (centres unmarked)	-8.614%	-13.07%
COc1ccc(CN2CCOCC3(CCN(C4CCOCC4)C3)C2)cc1.O=C(O)C(F)(F)F.O=C(O)C(F)(F)F (centres unmarked)	-13.49%	2.339%
Cn1cc(NCCOc2ccc(F)cc2)cn1	4.265% and 4.484%	2.755%
CCCn1cnnc1CNC(=O)C1COc2ccc(OC)cc2C1 (centres unmarked)	22.63%	21.26%
c1cc2nccc(CC3CCCN(Cc4ncc[nH]4)CC3)c2cn1 (centres unmarked)	-12.94%	-24.28%
CCC[C@H]1CN(S(C)(=O)=O)C[C@@H]1NC(=O)Cc1ccc(OC)cc1	-15.2%	-8.925%
O=C(CCCNc1ncccn1)Nc1cc(C(F)(F)F)c[nH]c1=O	-9.339%	6.01%
CCOC(=O)C(C)Nc1ccc(CCN2CCOCC2)cc1 (centres unmarked)	-28.12%	0.1914%
COc1coc(CN2CCCC3(CCC(=O)N(C4CC4)C3)C2)cc1=O (centres unmarked)	-4.691% and 10.58%	13.66%
CCN(C)c1ncnc2c1CCN(C(=O)N1CCCC1)CC2.O=C(O)C(F)(F)F	-12.43%	-9.77%

For reference, 3 entries once more:

structure,A,B
CCCn1cnnc1CNC(=O)C1COc2ccc(OC)cc2C1 (centres unmarked),22.63%,21.26%
Fc1cccc(C2CCCCN2Cc2nc(-c3cnccn3)no2)c1 (centres unmarked),-1.251%,3.832%
CCOc1nnc(CN2CCCC(c3nc4ccccc4[nH]3)C2)s1 (centres unmarked),21.36% and 10.87%,16.2%

Measurements from “University of Dundee, Small-Polar-MMV Screening Library” (2021), ChEMBL document CHEMBL3988442.